These are yes or no findings as the source states them, for the method shown. Binding seen in cells or lysates may run through a third protein. A yes stands for co-enrichment or nearness to the bait. Other partners may have been found.
Molecular target: activating transcription factor 4, endogenous (human (endogenous in iPSC-RPE)) (UniProt P18848)
Experiment: affinity purification with mass spectrometry

Protein sequences, listed by entry. Tags and fused reporters are not part of them. Residues count along the entry.
UniProt P18848: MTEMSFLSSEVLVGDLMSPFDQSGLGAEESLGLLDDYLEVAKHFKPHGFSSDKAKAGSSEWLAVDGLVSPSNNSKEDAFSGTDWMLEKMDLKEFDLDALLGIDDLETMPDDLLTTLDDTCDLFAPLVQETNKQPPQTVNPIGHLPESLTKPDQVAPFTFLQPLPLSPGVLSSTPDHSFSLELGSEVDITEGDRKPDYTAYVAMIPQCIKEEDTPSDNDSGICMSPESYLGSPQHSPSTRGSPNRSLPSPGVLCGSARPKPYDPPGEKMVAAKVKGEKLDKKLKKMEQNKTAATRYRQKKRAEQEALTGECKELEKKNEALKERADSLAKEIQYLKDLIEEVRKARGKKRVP
UniProt P14625, residues 22-803: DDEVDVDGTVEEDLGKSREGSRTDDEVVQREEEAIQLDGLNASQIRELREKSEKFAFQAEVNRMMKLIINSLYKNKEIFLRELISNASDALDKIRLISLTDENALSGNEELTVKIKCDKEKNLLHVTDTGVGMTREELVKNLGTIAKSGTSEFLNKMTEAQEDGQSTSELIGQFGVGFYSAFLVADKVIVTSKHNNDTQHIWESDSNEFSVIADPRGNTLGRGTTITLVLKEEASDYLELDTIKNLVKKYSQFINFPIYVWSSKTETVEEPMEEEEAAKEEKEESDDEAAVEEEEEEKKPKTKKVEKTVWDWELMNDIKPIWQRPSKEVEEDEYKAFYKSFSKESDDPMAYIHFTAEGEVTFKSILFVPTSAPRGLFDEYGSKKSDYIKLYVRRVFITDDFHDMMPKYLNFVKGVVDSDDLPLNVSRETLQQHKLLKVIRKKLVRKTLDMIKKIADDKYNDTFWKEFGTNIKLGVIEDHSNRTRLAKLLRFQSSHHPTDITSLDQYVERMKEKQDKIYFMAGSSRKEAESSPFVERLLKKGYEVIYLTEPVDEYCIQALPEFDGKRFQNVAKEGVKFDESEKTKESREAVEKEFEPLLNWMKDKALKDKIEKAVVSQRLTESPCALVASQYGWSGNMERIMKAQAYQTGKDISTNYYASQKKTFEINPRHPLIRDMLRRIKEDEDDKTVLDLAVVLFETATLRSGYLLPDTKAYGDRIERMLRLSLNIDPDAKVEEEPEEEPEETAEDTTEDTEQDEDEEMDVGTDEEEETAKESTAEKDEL
UniProt P51149: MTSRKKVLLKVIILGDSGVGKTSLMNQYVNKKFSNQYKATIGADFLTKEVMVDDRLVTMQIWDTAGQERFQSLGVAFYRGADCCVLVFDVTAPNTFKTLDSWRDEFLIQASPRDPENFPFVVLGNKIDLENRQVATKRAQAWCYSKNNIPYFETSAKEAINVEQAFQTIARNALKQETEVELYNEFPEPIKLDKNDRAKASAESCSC

binding	Substance
binds	HSP90B1, endogenous (from UniProt P14625 22-803)
binds	RAB7A, endogenous (from UniProt P51149 1-207)

Source: paper doi:10.1101/2025.11.24.690135
